In EP3912994A1:
These are yes or no findings as the source states them, for the method shown. In cells and extracts the contact can be indirect. Here binding means that the protein was enriched with, or labelled near, the bait; the list need not be complete.

Chains of the proteins cited; added tags and fusions are not shown. Residues count along the entry.
UniProt Q80YX1, residues 23-2110: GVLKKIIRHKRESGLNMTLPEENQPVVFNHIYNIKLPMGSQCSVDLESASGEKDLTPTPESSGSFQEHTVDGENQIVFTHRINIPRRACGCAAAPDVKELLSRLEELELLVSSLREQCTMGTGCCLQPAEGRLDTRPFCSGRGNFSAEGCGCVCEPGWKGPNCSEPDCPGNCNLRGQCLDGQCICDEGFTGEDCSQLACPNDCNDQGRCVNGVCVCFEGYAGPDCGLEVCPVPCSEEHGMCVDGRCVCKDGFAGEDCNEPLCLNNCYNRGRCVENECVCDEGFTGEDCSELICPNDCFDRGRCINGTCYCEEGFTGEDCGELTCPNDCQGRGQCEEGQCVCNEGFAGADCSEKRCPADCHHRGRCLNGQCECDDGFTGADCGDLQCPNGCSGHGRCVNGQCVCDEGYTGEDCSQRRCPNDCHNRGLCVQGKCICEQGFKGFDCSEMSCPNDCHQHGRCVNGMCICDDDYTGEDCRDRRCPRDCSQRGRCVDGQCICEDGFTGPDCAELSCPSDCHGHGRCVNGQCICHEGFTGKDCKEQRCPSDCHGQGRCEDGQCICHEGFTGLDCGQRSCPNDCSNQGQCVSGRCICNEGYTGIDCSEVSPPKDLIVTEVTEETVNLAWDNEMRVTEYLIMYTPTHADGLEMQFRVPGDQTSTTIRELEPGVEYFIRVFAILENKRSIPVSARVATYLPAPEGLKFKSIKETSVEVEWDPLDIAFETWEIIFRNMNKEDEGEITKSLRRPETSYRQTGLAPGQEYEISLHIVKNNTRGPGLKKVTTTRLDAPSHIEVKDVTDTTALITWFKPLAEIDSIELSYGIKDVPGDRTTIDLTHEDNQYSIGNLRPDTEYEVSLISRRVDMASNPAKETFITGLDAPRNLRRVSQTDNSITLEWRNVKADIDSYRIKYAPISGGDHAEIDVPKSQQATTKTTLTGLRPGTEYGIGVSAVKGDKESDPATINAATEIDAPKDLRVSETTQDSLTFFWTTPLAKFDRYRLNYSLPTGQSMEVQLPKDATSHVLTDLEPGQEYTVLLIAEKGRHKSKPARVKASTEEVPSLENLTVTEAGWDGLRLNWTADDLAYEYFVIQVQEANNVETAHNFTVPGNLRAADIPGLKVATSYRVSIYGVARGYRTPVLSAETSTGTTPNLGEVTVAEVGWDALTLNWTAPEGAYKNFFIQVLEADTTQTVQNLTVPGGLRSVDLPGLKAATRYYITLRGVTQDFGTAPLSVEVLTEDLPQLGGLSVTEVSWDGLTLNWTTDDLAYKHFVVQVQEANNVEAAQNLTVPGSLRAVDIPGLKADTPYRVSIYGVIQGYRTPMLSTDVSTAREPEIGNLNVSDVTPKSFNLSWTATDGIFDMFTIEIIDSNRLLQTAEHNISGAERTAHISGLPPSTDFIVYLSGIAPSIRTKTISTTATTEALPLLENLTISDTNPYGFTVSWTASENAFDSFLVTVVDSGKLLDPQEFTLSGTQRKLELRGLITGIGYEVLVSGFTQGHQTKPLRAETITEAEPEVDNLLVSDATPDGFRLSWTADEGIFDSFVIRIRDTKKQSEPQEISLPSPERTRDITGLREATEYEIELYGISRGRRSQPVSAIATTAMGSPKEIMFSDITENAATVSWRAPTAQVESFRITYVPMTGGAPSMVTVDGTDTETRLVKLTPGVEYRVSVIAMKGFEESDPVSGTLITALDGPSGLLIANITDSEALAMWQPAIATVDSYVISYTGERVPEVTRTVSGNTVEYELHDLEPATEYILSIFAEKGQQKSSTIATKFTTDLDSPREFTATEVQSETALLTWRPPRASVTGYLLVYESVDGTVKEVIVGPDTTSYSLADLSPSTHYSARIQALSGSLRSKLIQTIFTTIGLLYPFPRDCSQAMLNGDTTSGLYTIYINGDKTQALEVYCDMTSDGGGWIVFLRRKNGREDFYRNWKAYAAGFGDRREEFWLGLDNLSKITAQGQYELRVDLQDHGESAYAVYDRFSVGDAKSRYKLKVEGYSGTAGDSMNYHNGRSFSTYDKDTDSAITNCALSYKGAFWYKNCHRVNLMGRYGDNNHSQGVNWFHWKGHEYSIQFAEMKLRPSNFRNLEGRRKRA

Each binder was assayed against murine strep-tagged TNC (mTNC) (mouse) (UniProt Q80YX1) (assay: co-purification with recombinant mTNC, 1 M NaCl eluate, mass spectrometry).

Binder | binding
Nidogen-1 (protein, UniProt P10493 29-1245, looked up) LNRQELFPFGPGQGDLELEAGDDVVSPSLELIGELSFYDRTDITSVYVTTNGIIAMSEPPATEYHPGTFPPSFGSVAPFLADLDTTDGLGNVYYREDLSPFIIQMAAEYVQRGFPEVSFQPTSVVVVTWESVAPYGGPSSSPAEEGKRNTFQAVLASSNSSSYAIFLYPEDGLQFFTTFSKKDESQVPAVVGFSKGLVGFLWKSNGAYNIFANDRESIENLAKSSNAGHQGVWVFEIGSPATAKGVVSADVNLDLDDDGADYEDEDYDLVTSHLGLEDVATPSPSHSPRRGYPDPHNVPRILSPGYEATERPRGVPTERTRSFQLPAERFPQHHPQVIDVDEVEETGVVFSYNTGSQQTCANNRHQCSVHAECRDYATGFCCRCVANYTGNGRQCVAEGSPQRVNGKVKGRIFVGSSQVPVVFENTDLHSYVVMNHGRSYTAISTIPETVGYSLLPLAPIGGIIGWMFAVEQDGFKNGFSITGGEFTRQAEVTFLGHPGKLVLKQQFSGIDEHGHLTISTELEGRVPQIPYGASVHIEPYTELYHYSSSVITSSSTREYTVMEPDQDGAAPSHTHIYQWRQTITFQECAHDDARPALPSTQQLSVDSVFVLYNKEERILRYALSNSIGPVRDGSPDALQNPCYIGTHGCDSNAACRPGPGTQFTCECSIGFRGDGQTCYDIDECSEQPSRCGNHAVCNNLPGTFRCECVEGYHFSDRGTCVAAEDQRPINYCETGLHNCDIPQRAQCIYMGGSSYTCSCLPGFSGDGRACRDVDECQHSRCHPDAFCYNTPGSFTCQCKPGYQGDGFRCMPGEVSKTRCQLEREHILGAAGGADAQRPTLQGMFVPQCDEYGHYVPTQCHHSTGYCWCVDRDGRELEGSRTPPGMRPPCLSTVAPPIHQGPVVPTAVIPLPPGTHLLFAQTGKIERLPLERNTMKKTEAKAFLHIPAKVIIGLAFDCVDKVVYWTDISEPSIGRASLHGGEPTTIIRQDLGSPEGIALDHLGRTIFWTDSQLDRIEVAKMDGTQRRVLFDTGLVNPRGIVTDPVRGNLYWTDWNRDNPKIETSHMDGTNRRILAQDNLGLPNGLTFDAFSSQLCWVDAGTHRAECLNPAQPGRRKVLEGLQYPFAVTSYGKNLYYTDWKTNSVIAMDLAISKEMDTFHPHKQTRLYGITIALSQCPQGHNYCSVNNGGCTHLCLPTPGSRTCRCPDNTLGVDCIERK | binds
Nidogen-2 (protein, UniProt O88322 31-1403, looked up) LRPDELFPYGESWGDQLLPEGDDESSAAVKLAIPLRFYDAQFSSLYVGTNGIISTQDFPRETQYVDDDFPTDFPAIAPFLADIDTSHSRGRILYREDTSGAVLSLAARYVRTGFPLSGSSFTPTHAFLATWEHVGAYEEVSRGAAPSGELNTFQAVLASDESDTYALFLYPANGLQFFGTRPKESYNVQLQLPARVGFCRGEADDLKREALYFSLTNTEQSVKNLYQLSNLGIPGVWAFHIGSRFALDNVRPATVGGDPSTARSSALEHPFSHAAALESYTEDSFHYYDENEEDVEYPPVEPGEAPEGHSRIDVSFNSKADPGLVDVGTSSPGSDRASPWPYPAPGNWPSYRETESASLDPQTKQGRPVGEGEVLDFRDPAELLDQMGTRAPAPPEADAALLTPVNEDLGGRNTQSYPEAGPVPSEPDVPVPPLEGEVLPHYPESGHVPPLRGGKYVIGLEDHVGSNDQVFTYNGANLETCEHSHGRCSQHAFCTDYTTGFCCHCQSRFYGNGKHCLPEGAPHRVNGKVSGRLRVGHIPVHFTDVDLHAYIVGNDGRAYTAISHVPQPAAQALLPVLPIGGLFGWLFALEKPGSENGFSLTGATFVHDVEVTFHPGEERVRITQTAEGLDPENYLSIKTNIEGQVPFIPANFTAHITPYKEFYHYRDSVVTSSSSRSFSLTSGSINQTWSYHIDQNITYQACRHAPRHLAIPATQQLTVDRAFALYSEDEGVLRFAVTNQIGPVEVDSAPVGVNPCYDGSHTCDTTARCHPGTGVDYTCECTPGFQGDGRSCVDVNECATGFHRCGPNSVCVNLVGSYRCECRSGYEFADDQHTCILIAPPPNPCLDGSHTCAPEGQARCIHHGGSSFSCACLPGFIGTGHQCSDVDECAENRCHEAAICYNTPGSFSCRCQPGYRGDGFHCTSDTVPEDSISGLKPCEYQQRYAQTQHAYPGSRIHIPQCDDQGNFVPLQCHGSTGFCWCVDRNGHEVPGTQTPPGSTPPHCGPPPEPTQRPRTVCERWRESLLEHYGGTPRDDQYVPQCDDLGHFIPLQCHGKSDFCWCVDKDGRELQGTRSQPGTRPACIPTVAPPVVRPTPRPDVTPPSVGTFLLYAQGQQIGHLPLNGSRLQKDAARTLLSLHGSIVVGIDYDCRERMVYWTDVAGRTISRASLEAGAEPETIITSGLISPEGLAIDHFRRTMYWTDSGLDKIERAELDGSERKVLFHTDLVNPRAITVDPIRGNLYWTDWNREAPKIETSSLDGENRRILINKDIGLPNGLTFDPFSKLLCWADAGTKKLECTLPDGTGRRVIQNHLNYPFSIVSYADHFYHTDWRRDGVISVNKDSGQFTDEFLPEQRSHLYGITAVYPYCPTGRK | binds
Olfactomedin-like protein 2B (protein, UniProt Q3V1G4 21-746, looked up) STTPPTGTSEPPDVQTVEPTEDDILQNEADNQENVLSQLLGDYDKVKAVSEGSDCQCKCVVRPLGRDACQRINQGASRKEDFYTVETITSGSSCKCACVAPPSAVNPCEGDFRLQKLREADSRDLKLSTIIDLLEGAFYGLDLLKLHSVTTKLVGRVDKLEEEVSKNLTKENEQIKEDVEEIRTELNKRGKENCSDNTLESMPDIRSALQRDAAAAYAHPEYEERFLQEETVSQQINSIELLRTQPLVPPAAMKPQRPLQRQVHLRGRLASKPTVIRGITYYKAKVSEEENDIEEQHDELFSGDSGVDLLIEDQLLRQEDLLTSATRRPATTRHTAAVTTDASIQAAASSSEPAQASASASSFVEPAPQASDRELLATPQTTTVFPEPTEVMPSTQVSPTTVAHTAVQPLPAMVPGDIFVEALPLVPLLPDTVGTDMPEEEGTAGQEATSAGPILSPEEEDDIRNVIGRCKDTLSTITGPTTQNTYGRNEGAWMKDPLAKDDRIYVTNYYYGNTLVEFRNLENFKQGRWSNSYKLPYSWIGTGHVVYNGAFYYNRAFTRNIIKYDLKQRYVAAWAMLHDVAYEEATPWRWQGHSDVDFAVDENGLWLIYPALDDEGFNQEVIVLSKLNAVDLSTQKETTWRTGLRRNFYGNCFVICGVLYAVDSYNQRNANISYAFDTHTNTQIVPRLLFENEYSYTTQIDYNPKDRLLYAWDNGHQVTYHVIFAY | binds
Periostin (protein, UniProt Q62009 24-838, looked up) NSYYDKVLAHSRIRGRDQGPNVCALQQILGTKKKYFSSCKNWYQGAICGKKTTVLYECCPGYMRMEGMKGCPAVMPIDHVYGTLGIVGATTTQHYSDVSKLREEIEGKGSYTYFAPSNEAWENLDSDIRRGLENNVNVELLNALHSHMVNKRMLTKDLKHGMVIPSMYNNLGLFINHYPNGVVTVNCARVIHGNQIATNGVVHVIDRVLTQIGTSIQDFLEAEDDLSSFRAAAITSDLLESLGRDGHFTLFAPTNEAFEKLPRGVLERIMGDKVASEALMKYHILNTLQCSEAITGGAVFETMEGNTIEIGCEGDSISINGIKMVNKKDIVTKNGVIHLIDEVLIPDSAKQVIELAGKQQTTFTDLVAQLGLASSLKPDGEYTLLAPVNNAFSDDTLSMDQRLLKLILQNHILKVKVGLSDLYNGQILETIGGKQLRVFVYRTAICIENSCMVRGSKQGRNGAIHIFREIIQPAEKSLHDKLRQDKRFSIFLSLLEAADLKDLLTQPGDWTLFAPTNDAFKGMTSEERELLIGDKNALQNIILYHLTPGVYIGKGFEPGVTNILKTTQGSKIYLKGVNETLLVNELKSKESDIMTTNGVIHVVDKLLYPADIPVGNDQLLELLNKLIKYIQIKFVRGSTFKEIPMTVYTTKIITKVVEPKIKVIQGSLQPIIKTEGPAMTKIQIEGDPDFRLIKEGETVTEVIHGEPVIKKYTKIIDGVPVEITEKQTREERIITGPEIKYTRISTGGGETGETLQKFLQKEVSKVTKFIEGGDGHLFEDEEIKRLLQGDTPAKKIPANKRVQGPRRRSREGRSQ | binds
Peroxidasin homolog (enzyme, UniProt Q3UQ28 24-1475, looked up) VVASKQGAGCPSRCLCFRTTVRCMHLLLEAVPAVAPQTSILDLRFNRIREIQPGAFRRLRSLNTLLLNNNQIKKIPNGAFEDLENLKYLYLYKNEIQSIDRQAFKGLASLEQLYLHFNQIETLDPESFQHLPKLERLFLHNNRITHLVPGTFSQLESMKRLRLDSNALHCDCEILWLADLLKTYAQSGNAQAAATCEYPRRIQGRSVATITPEELNCERPRITSEPQDADVTSGNTVYFTCRAEGNPKPEIIWLRNNNELSMKTDSRLNLLDDGTLMIQNTQEADEGVYQCMAKNVAGEAKTQEVTLRYLGSPARPTFVIQPQNTEVLVGESVTLECSATGHPLPQITWTRGDRTPLPIDPRVNITPSGGLYIQNVAQSDSGEYTCFASNSVDSIHATAFIIVQALPQFTVTPQSRVVIEGQTVDFQCAAKGHPQPVIAWTKGGSQLSVDRRHLVLSSGTLRISGVALHDQGQYECQAVNIIGSQKVVAHLTVQPRVTPVFASIPSDMTVEVGTNVQLPCSSQGEPEPAITWNKDGVQVTESGKFHISPEGFLTINDVGTADAGRYECVARNTIGYASVSMVLSVNVPDVSRNGDPYVATSIVEAIATVDRAINSTRTHLFDSRPRSPNDLLALFRYPRDPYTVGQARAGEIFERTLQLIQEHVQHGLMVDLNGTSYHYNDLVSPQYLSLIANLSGCTAHRRVNNCSDMCFHQKYRTHDGTCNNLQHPMWGASLTAFERLLKAVYENGFNTPRGINSQRQYNGHVLPMPRLVSTTLIGTEVITPDEQFTHMLMQWGQFLDHDLDSTVVALSQARFSDGQHCSSVCSNDPPCFSVMIPPNDPRVRSGARCMFFVRSSPVCGSGMTSLLMNSVYPREQINQLTSYIDASNVYGSTDHEARSIRDLASHRGLLRQGIVQRSGKPLLPFATGPPTECMRDENESPIPCFLAGDHRANEQLGLTSMHTLWFREHNRIAAELLKLNPHWDGDTVYHETRKIVGAEIQHITYRHWLPKILGEVGMKMLGEYRGYDPSVNAGIFNAFATAAFRFGHTLINPLLYRLDENFEPIPQGHVPLHKAFFSPFRIVNEGGIDPLLRGLFGVAGKMRIPSQLLNTELTERLFSMAHTVALDLAAINIQRGRDHGIPPYHDYRVYCNLSAAYTFEDLKNEIKSPVIREKLQRLYGSTLNIDLFPALMVEDLVPGSRLGPTLMCLLSTQFRRLRDGDRLWYENPGVFSPAQLTQLKQTSLARILCDNSDNITRVQQDVFRVAEFPHGYSSCEDIPRVDLRVWQDCCEDCRTRGQFNAFSYHFRGRRSLEFSYEDDKPTKRARWRKALSVKHGKHLSNATSATHEHLEGPATNDLKEFVLEMQKIITDLRKQINSLESRLSTTECVDDSGESHGGNTKWKKDPCTVCECKNGQITCFVEACQPAACPQPVKVEGACCPVCLKNTAEEKP | binds
Secreted frizzled-related protein 1 (protein, UniProt Q8C4U3 32-314, looked up) SEYDYVSFQSDIGSYQSGRFYTKPPQCVDIPVDLRLCHNVGYKKMVLPNLLEHETMAEVKQQASSWVPLLNKNCHMGTQVFLCSLFAPVCLDRPIYPCRWLCEAVRDSCEPVMQFFGFYWPEMLKCDKFPEGDVCIAMTPPNTTEASKPQGTTVCPPCDNELKSEAIIEHLCASEFALRMKIKEVKKENGDKKIVPKKKKPLKLGPIKKKELKRLVLFLKNGADCPCHQLDNLSHNFLIMGRKVKSQYLLTAIHKWDKKNKEFKNFMKRMKNHECPTFQSVFK | binds
